At least one compound was matched to its structure with a doubt left.
Key:
[1] = system: HeHrl-cells; assay: Growth/killing of Burkitt lymphoma HeHrl-cells (HeHr); assay type: cell-based; details: FIGS. 1 and 2
Experimental: (§1) Burkitt lymphoma cells were obtained from professor Georg Klein, Karolinska Institutet. HeHrl-cells contain Epstein-Barr virus antigen on the surface of the cells while Raji cells contain the same antigen in the nucleus. The cells were grown in RPMI 1640 medium in the presence of 15% of fetal calf-serum, 2mM glutamine, 200 mg/1 penicillin and 200 mg/1 of streptomycine. L 1210 cells (mouse leukemia) were obtained from Dr. Miklos Degre, Rikshospitalet, Oslo. These cells were grown in RPMI 1640 medium with 10% horse serum.

[2] = system: Raji cells; assay: Growth/killing of Burkitt lymphoma Raji-cells; assay type: cell-based; details: FIGS. 1 and 3
Experimental: as §1

SMILES: O=c1[nH]c(=O)n([C@H]2C[C@H](O)[C@@H](CO)O2)cc1I [iododeoxy-uridine, iododeoxyuridine, reference compound]
- sensitivity / killing of HeHrl-cells [1]: sensitive
- sensitivity / killing of Raji-cells [2]: are not
